# Source: PubChem BioAssay AID540256 (National Center for Advancing Translational Sciences (NCATS), 2011)
# Screen size: about 300,000 compounds; about 3,700 (1.2%) were called active. Inconclusive means that the source gave no clear call. Such entries were picked first, then a sample of the others. Calls come from the whole dose curve; tested in HEK293 cells. Where the call is inconclusive, the potency comes from a doubtful curve fit.
# Assay: qHTS for Inhibitors of binding or entry into cells for Lassa Virus; note: nearly all actives have a fitted effect of over 50% in size
# Conditions: Lassa virus pseudotype entry inhibition, cell reporter; activity change, negative = inhibition: at 37.9 µM (top of the series) unless noted
# % is set by controls: 0 for no effect and ±100 for the full control effect; potency is the fitted concentration of half-maximal effect.
Compound,Potency,"activity change, negative = inhibition"
O=C(c1sc2cc(F)ccc2c1Cl)N1CCN(c2ccccc2)CC1,"inconclusive: 1.26 µM [inhibitor, single point]",
O=C(OCC1CCCO1)c1ccc2c(c1)N(Cc1ccccc1)C(=O)c1ccccc1S2(=O)=O (stereo not given),,inactive: 5.83% [at 46.1 µM]
CN(c1ccccc1)S(=O)(=O)c1cccc(NC(=O)C2CCCO2)c1 (stereo not given),"inconclusive: 35.5 µM [inhibitor, single point]",
CCCc1[nH]n(-c2ccc(F)cc2)c(=O)c1C=Nc1ccc(C)cc1,,inactive: 14.2%
COc1ccc(S(=O)(=O)N2CCOC23CCN(S(=O)(=O)c2ccc(C)cc2)CC3)cc1,"inconclusive: 11.2 µM [inhibitor, partial curve, poor fit]",
CCN(CC)S(=O)(=O)c1ccc2c(c1)nc(CN(C)C(=O)Nc1ccc(C)c(F)c1)n2C,,inactive: 17.8% [at 46.1 µM]
CCc1nc2sc3ccccc3c(=O)c2c(=O)n1Cc1ccc(OC)cc1,"inconclusive: 8.91 µM [inhibitor, partial curve]",
Cc1ccc(-c2csc(=Nc3ccccc3)n2Cc2ccc3c(c2)OCO3)cc1,,inactive: 0.766% [at 46.1 µM]
CCCCCCc1cc2cc(C(=O)Nc3ccccc3)c(=O)oc2cc1O,active: 3.55 µM,
CC1CCc2sc(C(=O)NCC3CCCO3)cc2C1 (stereo not given),"inconclusive: 11.2 µM [inhibitor, partial curve, poor fit]",
COc1ccc(N2C(=O)CN(Cc3ccc(OC)c(OC)c3)C2=S)cc1,"inconclusive: 14.1 µM [inhibitor, partial curve]",
CCOc1ccccc1OCCCC(=O)N(C)CC(=O)Nc1cc(C)ccc1C,,inactive: -0.527%
CC(C)(C)c1ccc(O)c(N=Cc2c(O)ccc3ccccc23)c1,"inconclusive: 22.4 µM [inhibitor, partial curve, poor fit]",
COc1ccc(OCCOC(=O)Nc2ccccc2)cc1,,inactive: -0.328%
COc1cc(C(=O)COC(=O)Cc2cnc3sccn23)cc(OC)c1OC,"inconclusive: 1.78 µM [activator, partial curve, poor fit]",
Cn1cc(/C=C/c2cc[n+](C)cc2)c2cc(F)ccc21,"inconclusive: 17.8 µM [inhibitor, single point]",
Cc1ccc(Cn2ccnc2SCC(=O)Nc2nnc(C)s2)cc1,,inactive: 1.6% [at 46.1 µM]
CCn1nc(-c2ccccc2)c(-c2ccccc2)c(C(=O)Nc2ccc(NC(C)=O)cc2)c1=O,,inactive: -4.42% [at 46.1 µM]
O=C(O)c1nn(CCOc2ccc(Cl)cc2Cl)c(=O)c2ccccc12,"inconclusive: 25.1 µM [inhibitor, single point]",
O=c1c(-c2ccco2)[n+]([O-])c2ccccc2n1OCc1ccccn1,,inactive: 0.719%

# Entries of single compounds as entered above.
# CCc1nc2sc3ccccc3c(=O)c2c(=O)n1Cc1ccc(OC)cc1 is listed with Potency: inconclusive: 8.91 µM [inhibitor, partial curve]
# Cn1cc(/C=C/c2cc[n+](C)cc2)c2cc(F)ccc21 is listed with Potency: inconclusive: 17.8 µM [inhibitor, single point]
